Test [1] deals with T1, Inscuteable (Insc), endogenous (Drosophila (endogenous in L3 larval brains)) (UniProt Q24367).
T1 sequence: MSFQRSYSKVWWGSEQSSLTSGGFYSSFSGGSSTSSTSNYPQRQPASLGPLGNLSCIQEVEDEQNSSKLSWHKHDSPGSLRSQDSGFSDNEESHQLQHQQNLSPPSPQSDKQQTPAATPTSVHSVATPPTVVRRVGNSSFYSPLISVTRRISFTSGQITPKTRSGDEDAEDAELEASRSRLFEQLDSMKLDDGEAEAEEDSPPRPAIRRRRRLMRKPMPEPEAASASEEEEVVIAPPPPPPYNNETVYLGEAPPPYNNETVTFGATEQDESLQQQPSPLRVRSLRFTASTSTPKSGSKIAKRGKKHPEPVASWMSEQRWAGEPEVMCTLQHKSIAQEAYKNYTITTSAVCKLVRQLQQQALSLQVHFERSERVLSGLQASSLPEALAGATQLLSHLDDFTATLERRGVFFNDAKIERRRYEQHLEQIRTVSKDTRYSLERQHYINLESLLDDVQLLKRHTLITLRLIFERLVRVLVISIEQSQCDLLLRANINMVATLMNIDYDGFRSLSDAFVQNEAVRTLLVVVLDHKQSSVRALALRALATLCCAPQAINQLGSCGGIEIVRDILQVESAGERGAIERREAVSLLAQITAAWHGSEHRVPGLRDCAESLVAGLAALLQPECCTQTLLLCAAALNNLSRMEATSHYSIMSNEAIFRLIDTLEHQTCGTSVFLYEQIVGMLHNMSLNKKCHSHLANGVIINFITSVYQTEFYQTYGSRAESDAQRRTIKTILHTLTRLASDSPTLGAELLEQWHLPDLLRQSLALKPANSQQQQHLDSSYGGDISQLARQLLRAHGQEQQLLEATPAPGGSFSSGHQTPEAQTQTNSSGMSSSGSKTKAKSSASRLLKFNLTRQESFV
The test is described as follows: co-IP; endogenous proteins from wild-type L3 larval brain extracts; antibodies on protein G sepharose; 50 mM HEPES pH 7.5/150 mM NaCl/1 mM DTT/0.1% Triton X-100; western blot. Background: Immunoblotting shows a protein as a band on a membrane.

In test [2] the target is T2, Partner of Inscuteable (Pins), endogenous (Drosophila (endogenous in L3 larval brains)) (UniProt Q9VB22).
T2 sequence: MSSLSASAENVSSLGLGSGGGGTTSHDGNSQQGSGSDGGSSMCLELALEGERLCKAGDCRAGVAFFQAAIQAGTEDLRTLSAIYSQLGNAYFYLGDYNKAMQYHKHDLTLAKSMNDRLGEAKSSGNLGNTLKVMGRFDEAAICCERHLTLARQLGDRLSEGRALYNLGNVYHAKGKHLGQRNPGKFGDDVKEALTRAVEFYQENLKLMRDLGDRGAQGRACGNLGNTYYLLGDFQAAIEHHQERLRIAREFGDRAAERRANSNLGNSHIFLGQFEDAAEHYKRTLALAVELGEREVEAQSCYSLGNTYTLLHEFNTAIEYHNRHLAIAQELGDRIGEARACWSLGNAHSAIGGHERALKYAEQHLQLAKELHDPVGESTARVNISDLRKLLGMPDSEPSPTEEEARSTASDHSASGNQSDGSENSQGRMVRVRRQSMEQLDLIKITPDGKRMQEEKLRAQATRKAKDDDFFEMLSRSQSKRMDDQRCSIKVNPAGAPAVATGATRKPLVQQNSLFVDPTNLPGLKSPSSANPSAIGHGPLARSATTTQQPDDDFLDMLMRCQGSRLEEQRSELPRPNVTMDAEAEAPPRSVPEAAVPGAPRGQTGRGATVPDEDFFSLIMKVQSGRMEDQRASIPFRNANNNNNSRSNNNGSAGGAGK
Described as above.

Test [3] deals with T3, GST-fusion of the Pins GoLoco region (residues 372-658) (Drosophila) (UniProt Q9VB22).
T3 sequence: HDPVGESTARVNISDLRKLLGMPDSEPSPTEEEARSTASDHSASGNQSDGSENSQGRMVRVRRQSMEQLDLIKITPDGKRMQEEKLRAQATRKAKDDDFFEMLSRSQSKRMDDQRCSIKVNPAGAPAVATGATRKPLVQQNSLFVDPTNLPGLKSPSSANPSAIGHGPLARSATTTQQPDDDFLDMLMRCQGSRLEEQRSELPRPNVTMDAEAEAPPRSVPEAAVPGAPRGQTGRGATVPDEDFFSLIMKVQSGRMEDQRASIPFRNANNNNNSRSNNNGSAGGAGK
In words: pull-down; GST-Pins constructs adsorbed on glutathione agarose, purified MBP-Insc added; 10 mM Hepes/100 mM NaCl/1 mM DTT, 50 µl, room temperature, 15 min; gel electrophoresis; both purified.

These are yes or no findings as the source states them, for the method shown. For part of these data: Binding seen in cells or lysates may run through a third protein. Some binding calls cover weakened binding; strength is not graded here. For part of these data: Where a sequence is shown, tags or fusion partners need not be part of it.

B1: Partner of Inscuteable (Pins), endogenous (protein, UniProt Q9VB22 1-658)
chain: MSSLSASAENVSSLGLGSGGGGTTSHDGNSQQGSGSDGGSSMCLELALEGERLCKAGDCRAGVAFFQAAIQAGTEDLRTLSAIYSQLGNAYFYLGDYNKAMQYHKHDLTLAKSMNDRLGEAKSSGNLGNTLKVMGRFDEAAICCERHLTLARQLGDRLSEGRALYNLGNVYHAKGKHLGQRNPGKFGDDVKEALTRAVEFYQENLKLMRDLGDRGAQGRACGNLGNTYYLLGDFQAAIEHHQERLRIAREFGDRAAERRANSNLGNSHIFLGQFEDAAEHYKRTLALAVELGEREVEAQSCYSLGNTYTLLHEFNTAIEYHNRHLAIAQELGDRIGEARACWSLGNAHSAIGGHERALKYAEQHLQLAKELHDPVGESTARVNISDLRKLLGMPDSEPSPTEEEARSTASDHSASGNQSDGSENSQGRMVRVRRQSMEQLDLIKITPDGKRMQEEKLRAQATRKAKDDDFFEMLSRSQSKRMDDQRCSIKVNPAGAPAVATGATRKPLVQQNSLFVDPTNLPGLKSPSSANPSAIGHGPLARSATTTQQPDDDFLDMLMRCQGSRLEEQRSELPRPNVTMDAEAEAPPRSVPEAAVPGAPRGQTGRGATVPDEDFFSLIMKVQSGRMEDQRASIPFRNANNNNNSRSNNNGSAGGAGK
In the case of B1, in test [1], the binding entry is reported as “binds”.

B2: Inscuteable (Insc), endogenous (protein, UniProt Q24367 1-859)
chain: MSFQRSYSKVWWGSEQSSLTSGGFYSSFSGGSSTSSTSNYPQRQPASLGPLGNLSCIQEVEDEQNSSKLSWHKHDSPGSLRSQDSGFSDNEESHQLQHQQNLSPPSPQSDKQQTPAATPTSVHSVATPPTVVRRVGNSSFYSPLISVTRRISFTSGQITPKTRSGDEDAEDAELEASRSRLFEQLDSMKLDDGEAEAEEDSPPRPAIRRRRRLMRKPMPEPEAASASEEEEVVIAPPPPPPYNNETVYLGEAPPPYNNETVTFGATEQDESLQQQPSPLRVRSLRFTASTSTPKSGSKIAKRGKKHPEPVASWMSEQRWAGEPEVMCTLQHKSIAQEAYKNYTITTSAVCKLVRQLQQQALSLQVHFERSERVLSGLQASSLPEALAGATQLLSHLDDFTATLERRGVFFNDAKIERRRYEQHLEQIRTVSKDTRYSLERQHYINLESLLDDVQLLKRHTLITLRLIFERLVRVLVISIEQSQCDLLLRANINMVATLMNIDYDGFRSLSDAFVQNEAVRTLLVVVLDHKQSSVRALALRALATLCCAPQAINQLGSCGGIEIVRDILQVESAGERGAIERREAVSLLAQITAAWHGSEHRVPGLRDCAESLVAGLAALLQPECCTQTLLLCAAALNNLSRMEATSHYSIMSNEAIFRLIDTLEHQTCGTSVFLYEQIVGMLHNMSLNKKCHSHLANGVIINFITSVYQTEFYQTYGSRAESDAQRRTIKTILHTLTRLASDSPTLGAELLEQWHLPDLLRQSLALKPANSQQQQHLDSSYGGDISQLARQLLRAHGQEQQLLEATPAPGGSFSSGHQTPEAQTQTNSSGMSSSGSKTKAKSSASRLLKFNLTRQESFV
Regarding B2, in test [2], the binding entry is given as “binds”.

B3: MBP-fusion of the central Ankyrin-repeat containing domain of Inscuteable (residues 252-600) (domain or fragment, Drosophila, UniProt Q24367 252-600, looked up)
chain: APPPYNNETVTFGATEQDESLQQQPSPLRVRSLRFTASTSTPKSGSKIAKRGKKHPEPVASWMSEQRWAGEPEVMCTLQHKSIAQEAYKNYTITTSAVCKLVRQLQQQALSLQVHFERSERVLSGLQASSLPEALAGATQLLSHLDDFTATLERRGVFFNDAKIERRRYEQHLEQIRTVSKDTRYSLERQHYINLESLLDDVQLLKRHTLITLRLIFERLVRVLVISIEQSQCDLLLRANINMVATLMNIDYDGFRSLSDAFVQNEAVRTLLVVVLDHKQSSVRALALRALATLCCAPQAINQLGSCGGIEIVRDILQVESAGERGAIERREAVSLLAQITAAWHGSEH
notes: Inscuteable (Insc), Drosophila, residues 252-600, including the central Ankyrin-repeat containing region; pMAL-c2 based vector; also called MBP-Insc; source: E. coli BL21(DE3), purified (amylose resin)
Turning to B3, the binding result in test [3] is given as “no binding”.
